The text below walks through data of PubChem BioAssay AID445 (National Center for Advancing Translational Sciences (NCATS), 2006).

This is one part of the list. The main result of the screen is listed elsewhere. These columns were measured beside it and carry no call. Compounds called inactive in the main read-out are mostly missing here. Words in brackets tell the shape of the fitted curve; partial curves, single points and poor fits give uncertain potencies.

As a reminder, the AC50 is the midpoint of the concentration-response curve, whichever way the signal moves.

This assay can be described thus: IkB Signaling. The note with it: ABC-DLBCL IkBa-CBG/CBR dual luciferase ratio (green luciferase fused to IkBa over red control in OCI-Ly3 lymphoma cells), 4 h. In short, it runs like this: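 Luminescence ratio of IκBα-fused green versus native red beetle luciferase in OCI-Ly3 cells, 4 h post-doxycycline with compound; red signal alone, scaled from basal (0%) to zero light (-100%), flagged nonspecific or cytotoxic effects.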
Setting [1] is: measured here: control luc red channel unless noted.
Setting [2] is: measured here: IkB-luc green channel.
Where [3] appears, read: measured here: control luc red channel.

Regarding `CCOc1ccc(NC(=O)C2CCCN(S(=O)(=O)c3cccc4nonc34)C2)cc1` (centres undefined), the AC50 under setting [1] was 2.51 µM [falling, partial curve, poor fit].
Still for that read-out and setting: under `Cc1ccc(Nc2c(-c3cccs3)nc3nc(C)cc(C)n23)cc1` stands 15.8 µM [falling, partial curve]; under `Cc1oc2ncnc(N3CCCCC3)c2c1C(=O)N1CCN(c2cccc(C(F)(F)F)c2)CC1`, 25.1 µM [falling, partial curve]; under `Cc1ccc(-n2ncc(C(=O)NCc3ccccc3C)c2-n2cccc2)cc1`, 12.6 µM [falling, partial curve].
For `O=C(NCc1ccc2c(c1)CCN2C(=O)c1ccc(F)cc1)c1cc2ccccc2[nH]1`, under setting [1], the AC50 was 39.8 µM [falling, partial curve, poor fit].
Turning to `COc1ccccc1CNC(=O)CCC(=O)N1CC2CCCN2c2ccccc21` (centres undefined), the AC50 under setting [1] is 10 µM [falling, partial curve].
Same read-out and setting: under `COc1ccc(-c2[nH]c3ccccc3c2SCCNC(=O)c2cc(OC)c(OC)c(OC)c2)cc1` stands 7.94 µM [falling, partial curve]; under `O=C(CSc1nnc(COc2ccccc2Cl)o1)NC(=O)NC1CCCC1`, 31.6 µM [falling, partial curve].
For the compound `Cc1nc(NC(=O)CN2CCOCC2)sc1-c1ccccc1`, the AC50 under setting [1] was 39.8 µM [falling, single point].
Still for that read-out and setting: for `COc1ccc(-c2nc(CSCC(=O)NCc3ccc4c(c3)OCO4)c(C)o2)cc1OC` the value was 15.8 µM [falling, partial curve]; for `c1ccc(CNc2nc3c(-c4ccccc4)nnn3c3ccccc23)cc1`, 0.1 µM [falling, full curve]; for `Cc1ccc(-n2c(SCC(=O)Nc3ccc4c(c3)OCO4)nnc2-c2ccoc2C)cc1`, 20 µM [falling, partial curve].
The same measure, in the same setting: for `COc1ccc(SCc2cc(=O)c3cc(Cl)ccc3[nH]2)cc1` the value was 15.8 µM [rising, single point]; for `O=C(Cc1ccc(Cl)cc1)Nc1ccc2nn(-c3ccc(Cl)cc3)nc2c1`, 0.398 µM [falling, full curve].
`O=C(O)c1cc(-n2c(/C=C\c3ccc(F)cc3)nc3ccccc3c2=O)ccc1Cl`: under setting [1], the AC50 is 20 µM [falling, partial curve].
Consider `O=C(NCc1ccc(Cl)cc1)c1cnc(N2CCCCC2)c2ccccc12`, for which the AC50 under setting [1] is 15.8 µM [falling, partial curve].
Same read-out and setting: under `COc1ccc(CNC(=O)C2CCN(Cc3nc(-c4ccc(Cl)cc4)oc3C)CC2)cc1` stands 12.6 µM [falling, partial curve].
For `Cn1nnnc1Sc1ncnc2scc(-c3ccc(F)cc3)c12`, the AC50 under setting [1] is 39.8 µM [falling, single point].
Same read-out and setting: under `Cc1c(S(=O)(=O)c2cccc(Cl)c2)nnn1-c1cccc(C(F)(F)F)c1` stands 6.31 µM [falling, partial curve]; under `COc1cc(C(=O)Nc2ccc3nc(SCc4ccc(C)cc4)sc3c2)cc(OC)c1OC`, 5.01 µM [falling, partial curve].
Turning to `CN(C)CC(C(=O)c1ccccc1)c1ccccc1` (centres undefined), the AC50 was 6.31 µM [rising, single point] under setting [2] and 3.98 µM [falling, partial curve] under setting [3].
Regarding `CCOc1ccc(-n2c(SCC(=O)N3CCOCC3)nc3c([nH]c4ccccc43)c2=O)cc1`, under setting [1], the AC50 was 1 µM [rising, full curve, poor fit].
Turning to `Cc1ccc(Cl)cc1-n1ncc2c(NC3CCCCCC3)ncnc21`, the AC50 under setting [1] is 3.98 µM [falling, partial curve].
On the same count and under the same terms, under `Cc1ccc(-n2nc(C(=O)N3CCC(C)CC3)c(=O)n(C)c2=O)cc1` stands 2 µM [falling, partial curve]; under `Fc1ccc(-c2nnc(-c3ccc(Cl)cc3Cl)o2)cc1`, 2 µM [falling, full curve, poor fit].
Same read-out and setting: for `Cc1ccc(Nc2c(-c3c[nH]c4ccccc34)nc3cc(C)ccn23)cc1` the value was 0.00794 µM [falling, full curve]; for `COc1cc(OC)c(OC)cc1/C=C/c1nc2cc3ccccc3cc2c(=O)n1-c1ccc(Cl)cc1`, 2.51 µM [falling, full curve].
Still for that read-out and setting: under `CC(C)OCCCNC(=O)c1ccc2c(c1)N(Cc1c(F)cccc1Cl)C(=O)c1ccccc1S2` stands 3.98 µM [falling, partial curve].
As to `COc1ccc(-c2nn3c(=O)cc(CN4CCN(C(=O)c5ccc(C(C)(C)C)cc5)CC4)nc3s2)cc1`, under setting [1], the AC50 is 31.6 µM [falling, single point].
Same read-out and setting: for `COc1ccc(C(=O)NCC(c2cccnc2)N2CCc3ccccc32)cc1` (centres undefined) the value was 25.1 µM [falling, single point]; for `O=C(CCC1N=C2c3ccccc3N=C(SCc3ccc(F)cc3)N2C1=O)NCc1cccs1` (centres undefined), 5.01 µM [falling, partial curve]; for `CCOC(=O)C1=C(CS(=O)(=O)c2cccc(C(F)(F)F)c2)NC(=O)NC1c1cccc(OC)c1` (centres undefined), 0.2 µM [falling, full curve, poor fit].
Same read-out and setting: for `CCC(C(=O)Nc1cc(Cl)ccc1OC)n1nc(-c2ccccc2)ccc1=O` (centres undefined) the value was 25.1 µM [falling, single point].
For `CCCCN(C)CCCNC(=O)C1CCN(c2nc3ccc(CC)cc3s2)CC1`, the AC50 under setting [1] is 2 µM [falling, full curve, poor fit].
As for `CC(C)c1ccc(NC(=O)C2CCCN(S(=O)(=O)c3cccc4cccnc34)C2)cc1` (centres undefined), under setting [1], the AC50 is 3.98 µM [rising, partial curve].
In the case of `COc1ccc(OC)c(NC(=O)c2noc3c2CCCC3)c1`, under setting [1], the AC50 is 3.98 µM [falling, single point].
Same read-out and setting: for `O=C(O)C1C2C=CC(O2)C1C(=O)Nc1ccc2c(c1)OCCO2` (centres undefined) the value was 10 µM [falling, partial curve]; for `Cc1ccc(OC(C)C(=O)Nc2nonc2-c2ccc(Br)cc2)cc1C` (centres undefined), 25.1 µM [falling, partial curve]; for `COCCNc1ncnc2ccc(-c3c(C)noc3C)cc12`, 1 µM [rising, full curve] [measured here: IkB-luc green channel].
For the compound `O=C(Nc1c(Cl)cccc1Cl)c1cc(-c2ccc3c(c2)OCO3)on1`, the AC50 under setting [1] was 0.158 µM [falling, full curve].
The same measure, in the same setting: under `Cc1ccc2nc(N(Cc3cccnc3)C(=O)COc3ccccc3)sc2c1` stands 3.98 µM [rising, full curve, poor fit].
The same measure, in the same setting: for `CCOC(=O)Cn1c(=O)oc2cc(S(=O)(=O)N3CCN(c4cccc(C)c4C)CC3)ccc21` the value was 6.31 µM [falling, partial curve].
On to `O=C(NCc1ccco1)c1cc2c(s1)CCCCC2`, for which the AC50 under setting [2] is 25.1 µM [rising, partial curve] and the AC50 under setting [3] is 12.6 µM [falling, partial curve].
`Cc1ccc(NC(=O)C2C(=O)N(CCO)C3(C)CC2c2ccccc2O3)cc1` (centres undefined): the AC50 under setting [1] was 1.26 µM [falling, full curve, poor fit].
Take `CCCOc1cccc(C(=O)Nc2cccc(NC(=O)c3ccc(C(C)(C)C)cc3)c2)c1`: the AC50 under setting [1] was 0.794 µM [falling, full curve].
Still for that read-out and setting: under `COc1ccc(CCNC(=O)C2(c3cccs3)CCOCC2)cc1OC` stands 1.26 µM [rising, full curve, poor fit].
With `COc1ccc(-c2nc3c4ccccc4n(CC(=O)Nc4cc(F)ccc4F)c(=O)n3n2)cc1`, the AC50 under setting [1] is 20 µM [falling, partial curve].
Same read-out and setting: under `CCCCC(=O)Nc1ccccc1C(=O)OCc1cc(=O)n2nc(C3CCCCC3)sc2n1` stands 3.16 µM [falling, full curve].
`O=C(CSc1nccn1-c1ccc(F)cc1)Nc1ccc(OC(F)(F)F)cc1`: under setting [1], the AC50 is 12.6 µM [rising, partial curve, poor fit].
As for `CCOC(=O)c1c(C)oc2ccc(NS(=O)(=O)c3ccc4c5c(cccc35)C(=O)N4)cc12`, under setting [1], the AC50 is 7.94 µM [falling, partial curve].
The same measure, in the same setting: for `CCc1cc2c(=O)n(Cc3ccco3)c(SCc3c(C)noc3C)nc2s1` the value was 25.1 µM [falling, partial curve].
Still for that read-out and setting: for `Cc1ccc2c(C)c(C(=O)N(Cc3ccc(Cl)cc3)C3CCS(=O)(=O)C3)oc2c1` (centres undefined) the value was 39.8 µM [falling, single point].
On the same count and under the same terms, for `O=C1CN(C(=O)c2ccccc2C(F)(F)F)C(c2ccccc2)c2cc(F)ccc2N1` (centres undefined) the value was 25.1 µM [falling, single point]; for `c1ccc2c(c1)ccc1cc3c(ccc4ccccc43)cc12`, 0.02 µM [falling, full curve].
On to `CCCNc1c(NC(=O)c2ccc(OCCC)cc2)c(=O)oc2ccccc12`, for which the AC50 under setting [1] is 1 µM [falling, full curve, poor fit].
As for `CCCCC#Cc1nc(N)c2ncn([C@@H]3O[C@@H](C(=O)NCC)[C@H](O)[C@@H]3O)c2n1`, the AC50 under setting [2] is 0.000631 µM [rising, full curve, poor fit] and the AC50 under setting [3] is 0.00398 µM [rising, full curve].
As for `COc1cc(Cl)c(C)cc1NC(=O)c1sc2nc3n(c(=O)c2c1C)CCCCC3`, the AC50 under setting [1] is 25.1 µM [falling, partial curve].
As for `Cn1c(SCc2ccc(C(F)(F)F)cc2)nc2c([nH]c3ccccc32)c1=O`, the AC50 under setting [1] is 0.158 µM [rising, full curve].
As for `COc1cc(C(=O)NCC(c2cccnc2)N2CCc3ccccc32)cc(OC)c1OC` (centres undefined), the AC50 under setting [1] is 10 µM [falling, partial curve].
Same read-out and setting: for `COc1cc2c(cc1NC(=O)CSCC(=O)O)oc1ccccc12` the value was 1.26 µM [falling, full curve]; for `CC(=O)c1c(C)oc2c(Cl)cc(NS(=O)(=O)c3ccc(Cl)cc3)cc12`, 0.631 µM [rising, full curve].
